# Reference: US5480777A (priority 1995, dated 1996)
# Tested on: phosphoenolpyruvate carboxylase (PEPC)
# Assay type: biochemical, wheat germ
SMILES,response of concentration-absorbance change curves,shape of absorbance change curves over the HCO3^- concentration range of interest
[K+].[O-][Cl+2]([O-])[O-] [KClO3],linear response,essentially linear absorbance change curves
[I-].[K+] [KI],linear response,essentially linear absorbance change curves
[K+].[O-][Cl+3]([O-])([O-])[O-] [KClO4],linear response,essentially linear absorbance change curves
"N#CS [KSCN, potassium thiocyanate]",linear response,essentially linear absorbance change curves

# Some compounds share one wording; it may come from a single statement.
